# Values joined by “and” are separate entries in the source; they are usually repeats but may differ in a detail not shown here. Equal entries are not always repeated. Out of some 320,000 compounds screened, about 22,000 (6.9%) were called active. This list was built around the results that the source calls inconclusive (neither active nor inactive); the mix of calls is not that of the screen. Calls follow the shape of the dose curve; as a rule, active = well fitted inhibition curve with a large enough effect; inconclusive = small, poorly fitted or top-dose-only effect, or another doubt; inactive = no such curve, though single readings can be large or run the other way. Where the call is inconclusive, the potency comes from a doubtful curve fit.
# Assay: Primary qHTS for delayed death inhibitors of the malarial parasite plastid, 96 hour incubation
# Settings: P. falciparum luciferase reporter growth; series mostly up to 28.7 µM
# Outline: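 Cell-based qHTS: luciferase-tagged P. falciparum in erythrocytes (2% hematocrit, 0.05% parasitemia final) incubated with compounds for 96 hours, 37 C, 5% CO2; luciferase detection reagent then added and luminescence measured.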
# Potency is read from the fitted curve at half-maximal effect.
row,SMILES,Potency
1,NC(=O)Cn1cc(C(=O)C(=O)N2CCOCC2)c2ccccc21,"inconclusive: 18.5 µM [inhibitor, single point]"
2,O=C(NC(=S)N1CCCCC1)c1cccnc1,"inconclusive: 1.17 µM [inhibitor, partial curve]"
3,Cc1cccc(C(=O)N2CCCCCC2)c1,"inconclusive: 6.57 µM [inhibitor, partial curve, poor fit]"
4,COc1ccc(C2CC(=O)c3c(ccc4ccccc34)N2)cc1OC (configuration not stated),"inconclusive: 13.1 µM [inhibitor, single point]"
5,CCc1cc(=O)oc2cc(C)cc(OCC(=O)N3CCC(C(=O)NC(C)C)(c4ccccc4)CC3)c12,active: 10.4 µM
6,COc1ccc(CN2CCNC(=O)C2CC(=O)N(C)Cc2nccs2)c(OC)c1 (configuration not stated),"inconclusive: 6.57 µM [inhibitor, partial curve]"
7,CN(Cc1ccccc1)CC(O)COc1ccc(CNCc2ccc(Cl)s2)cc1 (configuration not stated),"inconclusive: 4.15 µM [inhibitor, partial curve, poor fit]"
8,Cc1cc(NC(=O)CSc2nc(=O)cc(N)n2-c2ccc(Cl)cc2)no1,"inconclusive: 0.0738 µM [inhibitor, full curve, poor fit]"
9,CCN(CC)CCCNC(=O)c1cc2c(=O)[nH]c3ccc(C)cc3c2s1,inactive
10,Cc1ccc(CN(C(=O)c2ccccc2C)C2CCS(=O)(=O)C2)o1 (configuration not stated),"inconclusive: 18.5 µM [inhibitor, partial curve, poor fit]"
11,COc1cccc(C(=O)OCC(=O)c2ccc(Br)s2)c1OC,"inconclusive: 4.15 µM [inhibitor, partial curve, poor fit]"
12,COc1cnc(-c2ccccc2)nc1Sc1ccccc1,"inconclusive: 0.0029 µM [inhibitor, full curve, poor fit]"
13,O=C(NC1CCCCCCC1)c1cccnc1,"inconclusive: 18.5 µM [inhibitor, single point]"
14,Cc1cc(Cl)ccc1OCC(O)CN1C(C)CCCC1C (configuration not stated),"inconclusive: 14.7 µM [inhibitor, partial curve, poor fit]"
15,OCCC1CN(C2CCN(c3ccccc3)CC2)CCN1Cc1ccc(F)c(F)c1 (configuration not stated),inactive
16,COc1ccc(-n2c(C)cc(C(=O)COC(=O)Cn3cnc4ccccc43)c2C)cc1,inactive
17,CCCn1c(N)c(N(CCOC)C(=O)Cc2ccc(S(=O)(=O)N3CCOCC3)s2)c(=O)[nH]c1=O,inactive
18,CC(C)Oc1ccc(S(=O)(=O)N2CCOCC2)cc1NC(=O)C1COc2ccccc2O1 (configuration not stated),active: 11.7 µM
19,CCOc1ccc(CCNC(=O)c2ccc(Cl)c(S(=O)(=O)N3CCOCC3)c2)cc1OCC,"inconclusive: 10.4 µM [inhibitor, partial curve, poor fit]"
20,COc1ccc(S(=O)(=O)NC(CC(=O)NC2CCCC2)c2ccco2)cc1 (configuration not stated),"inconclusive: 3.7 µM [inhibitor, full curve]"
21,CC(=O)NC(=O)c1ccc(-c2ccc(Cl)cc2)o1,inactive
22,CC(=O)NC(C)c1cc(Cl)c2cccnc2c1O (configuration not stated),"inconclusive: 16.5 µM [inhibitor, single point] and inconclusive: 10.4 µM [inhibitor, single point]"
23,COc1cc(OC)c(NC(=O)C(=O)CC(=O)c2ccc(C)cc2C)cc1Cl,active: 3.29 µM

# Four consecutive entries from above, quoted:
row,SMILES,Potency
10,Cc1ccc(CN(C(=O)c2ccccc2C)C2CCS(=O)(=O)C2)o1 (configuration not stated),"inconclusive: 18.5 µM [inhibitor, partial curve, poor fit]"
11,COc1cccc(C(=O)OCC(=O)c2ccc(Br)s2)c1OC,"inconclusive: 4.15 µM [inhibitor, partial curve, poor fit]"
12,COc1cnc(-c2ccccc2)nc1Sc1ccccc1,"inconclusive: 0.0029 µM [inhibitor, full curve, poor fit]"
13,O=C(NC1CCCCCCC1)c1cccnc1,"inconclusive: 18.5 µM [inhibitor, single point]"

# Next part.

row,SMILES,Potency
1,Cc1[nH]c2ccccc2c1SCC(=O)N1CCC(C)CC1,inactive
2,COc1cccc(C(=O)NC(c2ccccc2)C2CCCC2)c1 (configuration not stated),"inconclusive: 0.0165 µM [inhibitor, full curve, poor fit]"
3,CC1=C(C(=O)OC(C)C)C(c2cccs2)NC(=S)N1 (configuration not stated),"inconclusive: 9.28 µM [inhibitor, single point]"
4,COc1ccccc1OCC(=O)NCC1CCCN(C(=O)c2ccccc2SC)C1 (configuration not stated),inactive
5,CC1(C)Cc2c(sc(NC(=O)c3ccccc3)c2C(=O)O)CO1,inactive
6,COc1ccc(C2CC(=O)C=C(NC3CCCC3)C2)cc1 (configuration not stated),"inconclusive: 10.4 µM [inhibitor, single point]"
7,Cc1cc(-c2ccc(C)c(S(=O)(=O)NCC3CCN(Cc4ccc(F)cc4)CC3)c2)on1,"inconclusive: 9.28 µM [inhibitor, partial curve]"
8,Cc1nc2ccccn2c1C(=O)N=Nc1c(O)[nH]c2ccccc12,"inconclusive: 0.294 µM [inhibitor, partial curve]"
9,Cc1ccc(-n2c(-c3cccs3)nc3nc4ccccc4nc32)cc1,active: 2.94 µM
10,CCCc1cc(=O)[nH]c(SCC(=O)N(C)CC(=O)Nc2ccc(F)cc2)n1,"inconclusive: 0.586 µM [inhibitor, full curve, poor fit]"
11,COc1ccc(CCNC(=S)N2CCN(S(=O)(=O)c3ccccc3)CC2)cc1,"inconclusive: 9.28 µM [inhibitor, single point]"
12,N#Cc1cc2c(nc1SCc1ccc(Cl)nc1)CCCCC2,"inconclusive: 13.1 µM [inhibitor, partial curve, poor fit]"
13,CCSc1nnc(-c2ccccc2N)c(=O)[nH]1,"inconclusive: 11.7 µM [inhibitor, single point]"
14,Cc1onc(-c2ccccc2Cl)c1C(=O)Nc1ccc(N2CCOCC2)cc1,"inconclusive: 0.0026 µM [inhibitor, full curve, poor fit]"
15,O=C(CN1CCN(Cc2ccccc2)CC1)N/N=C/C=C/c1ccccc1[N+](=O)[O-],inactive
16,O=C(c1cccc(OC2CCN(Cc3ccc(F)cc3)CC2)c1)N1CCCC1,inactive
17,O=C(Nc1ccc(Br)cc1)C1CCN(C(=O)c2ccc(F)cc2)CC1,"inconclusive: 7.38 µM [inhibitor, partial curve]"
18,Cc1ccc(C(=O)N/N=C\c2ccccc2[N+](=O)[O-])cn1,"inconclusive: 9.28 µM [inhibitor, single point]"
19,C=CCNc1nc(-c2cccc(OC)c2O)nc2ccccc12,"inconclusive: 18.5 µM [inhibitor, single point]"
20,CCN(CC(=O)Nc1c(F)cccc1F)C(=O)c1ccc(Cl)c(S(=O)(=O)N2CCCC2)c1,"inconclusive: 10.4 µM [inhibitor, single point]"
21,CSc1nc(NCc2ccco2)c2sc3nc(C(C)C)c4c(c3c2n1)CC(C)(C)OC4,"inconclusive: 0.928 µM [inhibitor, full curve, poor fit]"
22,C[C@@]12CCC=C[C@H]1[C@H](c1ccc(F)c(/C=C/c3ccccc3)c1)N(Cc1ccccc1)C2=O,"inconclusive: 18.5 µM [inhibitor, single point]"
23,O=C(Cn1cnc2ccccc21)c1ccccc1,"inconclusive: 11.7 µM [inhibitor, single point]"

row,SMILES,Potency
1,Cn1c(=O)c2c(nc(CN3CCN(CCO)CC3)n2CCc2ccccc2)n(C)c1=O,"inconclusive: 5.22 µM [inhibitor, partial curve]"
2,C/C(=C\C(=O)c1ccccc1)Nc1ccc(Br)c(Cl)c1,inactive
3,COc1ccc(CNC(=O)Nc2cccs2)cc1OC,"inconclusive: 11.7 µM [inhibitor, partial curve, poor fit]"
4,O=C(N/N=C/c1cccnc1)c1ccc2ccccc2c1O,inactive
5,CCN(CC)CCN1C(=O)C(=O)/C(=C(/O)c2cccc(OC)c2)C1c1ccccn1 (configuration not stated),active: 11.7 µM
6,Cc1ccccc1NC(=O)CCC(=O)N/N=C/c1cccnc1,"inconclusive: 11.7 µM [inhibitor, single point]"
7,NC(=O)CN(C/C=C/c1ccccc1)C/C=C/c1ccccc1,"inconclusive: 5.22 µM [inhibitor, partial curve, poor fit]"
8,CCS(=O)(=O)Nc1cccc(C2=NN(S(C)(=O)=O)C(c3cccs3)C2)c1 (configuration not stated),"inconclusive: 18.5 µM [inhibitor, single point]"
9,COc1ccc([C@@H]2[C@@H]3C(=O)N(C(C)(C)C)C(=O)[C@@H]3[C@]3(Cc4ccccc4)C(=O)N(c4ccc(C)cc4)C(=O)N23)cc1,"inconclusive: 18.5 µM [inhibitor, single point]"
10,COC(=O)C1CCN(C(=O)c2sc3nc(-c4ccc(F)cc4)cn3c2C)CC1,"inconclusive: 4.65 µM [inhibitor, partial curve, poor fit]"
11,COc1ccc(CN2CCN(C(=O)CCC(=O)c3ccc(C)s3)CC2)cc1OC,"inconclusive: 10.4 µM [inhibitor, single point]"
12,C/C(=N/NC(=O)c1sc(NS(=O)(=O)c2ccccc2)nc1C)c1sc(N)nc1C,"inconclusive: 11.7 µM [inhibitor, single point]"
13,COc1ccc(Cn2c(CCC(=O)Nc3ccc(CC#N)cc3)nc3cccnc32)cc1,active: 3.7 µM
14,Cc1ccc(NC(=O)CSc2nnc(-c3cc(C)[nH]n3)n2N)c(C)c1,"inconclusive: 14.7 µM [inhibitor, partial curve]"
15,CCC(C)Nc1nc2c(c(=O)[nH]c(=O)n2C)n1CCCc1ccccc1 (configuration not stated),active: 4.15 µM
16,CC(O)Cn1cnc2c1c(=O)n(C)c(=O)n2C (configuration not stated),inactive
17,Cn1c(=O)c(=O)n(C)c2cc(S(=O)(=O)N3CCCC3C(=O)NCc3cccnc3)ccc21 (configuration not stated),inactive
18,O=C(Cc1ccc(Br)cc1)N1CCN(Cc2ccccc2)CC1,"inconclusive: 18.5 µM [inhibitor, single point]"
19,CCOc1ccc(N2C(=O)C3C4C=CC(CC4)C3C2=O)c([N+](=O)[O-])c1 (configuration not stated),"inconclusive: 11.7 µM [inhibitor, partial curve, poor fit]"
20,O=C(CCCC(=O)NCc1ccc(F)cc1)NCc1ccc(F)cc1,inactive
21,O=C(COc1ccc(Cl)cc1)NNC(=O)c1cccnc1,"inconclusive: 5.86 µM [inhibitor, partial curve, poor fit]"
